According to US20110076723A1, “ANTIBODY-PEPTIDE FUSED SYNERGIBODY” (SAMSUNG ELECTRONICS CO., LTD., priority 2008, published 2011):
At least one structure is not confirmed: it was looked up by name or label, or the drawing left a doubt. Where a SMILES comes first, the peptide text is derived from it. Bridges are numbered along the chain shown (N, C = ends).

Sequences of proteins named here, by UniProt entry; tags and fusion partners are left off. Residues count along the entry.
UniProt P35968, 20-764 limits assumed: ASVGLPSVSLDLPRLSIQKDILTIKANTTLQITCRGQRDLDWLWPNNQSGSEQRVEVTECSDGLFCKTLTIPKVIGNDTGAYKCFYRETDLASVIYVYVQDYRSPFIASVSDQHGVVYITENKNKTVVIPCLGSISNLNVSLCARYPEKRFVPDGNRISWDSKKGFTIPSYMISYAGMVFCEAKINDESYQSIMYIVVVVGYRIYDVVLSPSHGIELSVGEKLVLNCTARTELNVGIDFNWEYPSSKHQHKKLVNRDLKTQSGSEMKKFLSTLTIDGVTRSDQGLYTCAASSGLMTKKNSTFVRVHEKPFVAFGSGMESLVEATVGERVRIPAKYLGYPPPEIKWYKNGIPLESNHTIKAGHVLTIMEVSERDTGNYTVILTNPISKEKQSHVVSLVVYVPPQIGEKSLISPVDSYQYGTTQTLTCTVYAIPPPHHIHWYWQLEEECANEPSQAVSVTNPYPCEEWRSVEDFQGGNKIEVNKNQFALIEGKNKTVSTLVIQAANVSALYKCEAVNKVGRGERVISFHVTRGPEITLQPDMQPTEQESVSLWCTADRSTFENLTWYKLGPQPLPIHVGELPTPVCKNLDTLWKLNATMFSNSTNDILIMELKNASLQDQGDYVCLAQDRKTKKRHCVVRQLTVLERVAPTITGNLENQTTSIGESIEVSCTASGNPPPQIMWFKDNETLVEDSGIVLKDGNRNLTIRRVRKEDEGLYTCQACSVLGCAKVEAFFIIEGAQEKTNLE

Molecular target: T1, VEGF:VEGFR-2 binding (Homo sapiens, UniProt P35968)
T1 construct: protein having the water soluble extracellular site of human VEGFR-2 and Fc of human IgG1 connected thereto, R&D Systems; purchased R&D Systems
Experiment: VEGF:VEGFR-2 neutralization ELISA (competitive ELISA)
Details: synthesized peptides; VEGF 165 coated plate, 1 nM VEGFR-2; read-out: 50% inhibition concentration (IC50, nM) for VEGF:VEGFR-2 binding capacity

| SMILES | IC50 [nM] |
| --- | --- |
| CC[C@H](C)[C@@H]1NC(=O)[C@H](Cc2c[nH]c3ccccc23)NC(=O)[C@H](CCC(N)=O)NC(=O)[C@H](Cc2ccc(O)cc2)NC(=O)[C@H](CCCNC(=N)N)NC(=O)[C@H](CCSC)NC(=O)[C@H](CC(N)=O)NC(=O)[C@H](CC(C)C)NC(=O)[C@H](Cc2c[nH]cn2)NC(=O)[C@@H](NC(=O)[C@H](Cc2ccc(O)cc2)NC(=O)CNC(=O)[C@H](CCC(N)=O)NC(=O)[C@H](CO)NC(=O)CNC(=O)[C@@H]2CCCN2)CSSC[C@@H](C(=O)N[C@@H](CC(=O)O)C(=O)N[C@@H](CO)C(=O)N[C@@H](CCC(=O)O)C(=O)O)NC1=O [DTN11VEGFR-2-5] (H-PGSQGYCHLNMRYQWICDSE-OH; disulfide 7-17; N-terminus and C-terminus assumed) | 50.7 |
| CSCC[C@H](NC(=O)[C@H](CCCNC(=N)N)NC(=O)CNC(=O)[C@H](CO)NC(=O)CNC(=O)[C@@H](N)[C@@H](C)O)C(=O)N[C@H]1CSSC[C@@H](C(=O)N[C@@H](Cc2c[nH]c3ccccc23)C(=O)N[C@@H](Cc2ccccc2)C(=O)N[C@H](C(=O)O)[C@@H](C)O)NC(=O)[C@H](CC(N)=O)NC(=O)[C@H]([C@@H](C)O)NC(=O)[C@@H]2CCCN2C(=O)[C@@H]2CCCN2C(=O)CNC(=O)[C@H](CO)NC(=O)CNC(=O)[C@H](CC(=O)O)NC1=O [DTN10VEGFR-2-4] (H-TGSGRMCDGSGPPTNCWFT-OH; disulfide 7-16; N-terminus and C-terminus assumed) | 46.9 |
| CSCC[C@H](NC(=O)[C@@H]1CSSC[C@H](NC(=O)[C@H](CC(C)C)NC(=O)[C@H](CC(=O)O)NC(=O)[C@H](CC(=O)O)NC(=O)[C@H](CO)NC(=O)CNC(=O)[C@@H](N)[C@@H](C)O)C(=O)N[C@@H](Cc2ccc(O)cc2)C(=O)N[C@@H]([C@@H](C)O)C(=O)N[C@@H](Cc2ccccc2)C(=O)N2CCC[C@H]2C(=O)N1)C(=O)N[C@@H](Cc1c[nH]cn1)C(=O)N[C@@H](Cc1ccc(O)cc1)C(=O)O [DTN6VEGFR-2-1] (H-TGSDDLCYTFPCMHY-OH; disulfide 7-12; N-terminus and C-terminus assumed) | 56.7 |
| C[C@H](NC(=O)[C@@H](N)CCC(=O)O)C(=O)NCC(=O)N[C@@H](CCCCN)C(=O)N[C@@H](CCC(=O)O)C(=O)N[C@H](C(=O)N[C@H]1CSSC[C@@H](C(=O)N2CCC[C@H]2C(=O)N[C@@H](CCCNC(=N)N)C(=O)N2CCC[C@H]2C(=O)O)NC(=O)[C@H](Cc2ccc(O)cc2)NC(=O)[C@H](CCC(N)=O)NC(=O)[C@H](Cc2c[nH]c3ccccc23)NC(=O)[C@H](CCC(=O)O)NC(=O)[C@H](Cc2ccc(O)cc2)NC(=O)CNC1=O)[C@@H](C)O [DTN8VEGFR-2-2] (H-EAGKETCGYEWQYCPRP-OH; disulfide 7-14; N-terminus and C-terminus assumed) | 49.5 |
| CC(C)C[C@@H]1NC(=O)CNC(=O)[C@H](Cc2c[nH]c3ccccc23)NC(=O)[C@H](C)NC(=O)[C@H](CCCCN)NC(=O)[C@@H](NC(=O)[C@H](Cc2c[nH]c3ccccc23)NC(=O)[C@H](Cc2ccc(O)cc2)NC(=O)[C@H](C)NC(=O)CNC(=O)[C@H](C)NC(=O)[C@@H](N)CCC(=O)O)CSSC[C@@H](C(=O)N[C@@H](CC(C)C)C(=O)N[C@H](C(=O)N[C@H](C(=O)O)[C@@H](C)O)C(C)C)NC(=O)[C@@H]2CCCN2C(=O)[C@H](CO)NC1=O [DTN9VEGFR-2-3] (H-EAGAYWCKAWGLSPCLVT-OH; disulfide 7-15; N-terminus and C-terminus assumed) | 61.9 |
